Experimental data published in patent US20210324058A1 (BRIGHAM AND WOMEN S HOSPITAL, published 2021).
No constants are given. Whether binding was seen depends on the method and setting. Binding seen in cells or lysates may run through a third protein. Some results given as binding are weak or reduced against the parent protein; the word gives no strength.

Columns and labels:
[1] = target: T1, endogenous human NEDD9 of human pulmonary artery endothelial cells (lysates and plasma membrane fractions) (human) (UniProt Q14511); test: co-immunoprecipitation from HPAEC plasma membrane fractions: IP anti-P-Selectin, immunoblot with NEDD9 Ab #1
T1 sequence (looked up): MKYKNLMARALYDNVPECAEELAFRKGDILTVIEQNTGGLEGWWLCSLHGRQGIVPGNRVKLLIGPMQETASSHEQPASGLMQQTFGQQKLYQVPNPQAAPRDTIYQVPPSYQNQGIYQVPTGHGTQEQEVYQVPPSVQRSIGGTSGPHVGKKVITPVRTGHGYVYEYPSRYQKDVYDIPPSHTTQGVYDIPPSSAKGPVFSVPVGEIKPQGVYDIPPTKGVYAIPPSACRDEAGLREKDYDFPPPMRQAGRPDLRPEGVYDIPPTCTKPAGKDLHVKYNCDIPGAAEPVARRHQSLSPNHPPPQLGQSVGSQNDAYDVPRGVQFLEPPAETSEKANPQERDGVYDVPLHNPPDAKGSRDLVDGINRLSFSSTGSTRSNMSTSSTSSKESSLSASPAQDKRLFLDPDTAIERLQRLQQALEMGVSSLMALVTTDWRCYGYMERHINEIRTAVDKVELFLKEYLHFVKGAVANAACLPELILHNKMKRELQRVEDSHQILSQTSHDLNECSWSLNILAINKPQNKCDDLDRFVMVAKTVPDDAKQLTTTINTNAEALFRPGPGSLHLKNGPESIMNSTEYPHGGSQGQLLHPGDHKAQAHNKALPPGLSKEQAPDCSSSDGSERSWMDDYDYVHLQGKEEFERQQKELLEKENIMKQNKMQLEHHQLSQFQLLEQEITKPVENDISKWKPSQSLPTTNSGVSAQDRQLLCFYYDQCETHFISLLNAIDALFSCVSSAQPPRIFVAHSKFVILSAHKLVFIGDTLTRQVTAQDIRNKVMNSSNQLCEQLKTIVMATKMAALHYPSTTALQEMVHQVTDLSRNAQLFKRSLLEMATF

[2] = target: T1, endogenous human NEDD9 of human pulmonary artery endothelial cells (lysates and plasma membrane fractions) (human); test: anti-P-Selectin IP of HPAEC plasma membrane fractions with recombinant P-Selectin; LC-MS and co-immunoprecipitation

binding [1]: binds | binding [2]: binds
B1: recombinant P-Selectin/CD62P, R&D Systems ADP3-200 (other, human, UniProt P16109 42-771, looked up)
chain: WTYHYSTKAYSWNISRKYCQNRYTDLVAIQNKNEIDYLNKVLPYYSSYYWIGIRKNNKTWTWVGTKKALTNEAENWADNEPNNKRNNEDCVEIYIKSPSAPGKWNDEHCLKKKHALCYTASCQDMSCSKQGECLETIGNYTCSCYPGFYGPECEYVRECGELELPQHVLMNCSHPLGNFSFNSQCSFHCTDGYQVNGPSKLECLASGIWTNKPPQCLAAQCPPLKIPERGNMTCLHSAKAFQHQSSCSFSCEEGFALVGPEVVQCTASGVWTAPAPVCKAVQCQHLEAPSEGTMDCVHPLTAFAYGSSCKFECQPGYRVRGLDMLRCIDSGHWSAPLPTCEAISCEPLESPVHGSMDCSPSLRAFQYDTNCSFRCAEGFMLRGADIVRCDNLGQWTAPAPVCQALQCQDLPVPNEARVNCSHPFGAFRYQSVCSFTCNEGLLLVGASVLQCLATGNWNSVPPECQAIPCTPLLSPQNGTMTCVQPLGSSSYKSTCQFICDEGYSLSGPERLDCTRSGRWTDSPPMCEAIKCPELFAPEQGSLDCSDTRGEFNVGSTCHFSCDNGFKLEGPNNVECTTSGRWSATPPTCKGIASLPTPGVQCPALTTPGQGTMYCRHHPGTFGFNTTCYFGCNAGFTLIGDSTLSCRPSGQWTAVTPACRAVKCSELHVNKPIAMNCSNLWGNFSYGSICSFHCLEGQLLNGSAQTACQENGHWSTTVPTCQAGPLTIQEA
notes: Bought recombinant protein; Species is read from 'Purified human NEDD9 and P-Selectin/CD62P'; also called exogenous P-Selectin
